# Record: PubChem BioAssay AID743121 (NCATS, 2013)
# Test: 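Knock-downs that sensitise breast cancer cells to camptothecin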 (primary screen)
# Cell system: MDA-MB-231 cells, a human breast cancer line
# Knock-down reagent: single siRNA against human genes, 20 nM siRNA (0.8 pmol per well)
# Time to read-out: 120 h (drug added 48 h after transfection, read 72 h later)
# Treatment: camptothecin 20 nM (about EC30) for 72 h; vehicle 0.1% DMSO in parallel plates
# Measured: 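CellTiter-Glo ATP signal, scaled to control siRNA as percent viability; sensitisation given as log2 of untreated divided by camptothecin-treated viability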
# Scale: log2 vehicle/camptothecin viability: higher = stronger sensitisation to camptothecin
# Hit rule: 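Active genes have an RSA gene-level p-value below 0.001, computed from the ratios of their separate siRNAs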
# Shown is an unselected part of about 26,000 deposited reagents. 167 of them (0.63%) were called active. 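Calls are per gene from RSA p-values that are not deposited; an individual active-marked siRNA can sensitise only weakly.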 A number with no mark means an inactive call. Reagents against one gene are numbered here. Not all columns of the deposit are shown.
target gene,reagent,log2 vehicle/camptothecin viability
CAPN1,1,-0.0547
CAPN1,2,-0.147
CAPN1,3,-0.0993
CAPN1,4,-0.158
TMEM158,1,-0.328
TMEM158,2,0.0289
TMEM158,3,0.207
TMEM158,4,0.133
SLC6A20,1,-0.0472
SLC6A20,2,-0.482
SLC6A20,3,-0.0748
SLC6A20,4,-0.198
CXCL12,1,-0.137
CXCL12,2,0.0218
CXCL12,3,-0.242
AURKAIP1,1,-0.282
AURKAIP1,2,1.78
AURKAIP1,3,-0.0328
AURKAIP1,4,0.338
KIF19,1,0.102
KIF19,2,0.282
KIF19,3,0.162
KIF19,4,0.213
CFH,1,-0.611
CFH,2,-0.0624
CFH,3,-0.496
CFH,4,-0.403
INPP4B,1,-0.0581
INPP4B,2,-0.0791
INPP4B,3,-0.46
INPP4B,4,-0.364
RBBP4,1,-0.07
RBBP4,2,0.0479
RBBP4,3,-0.136
RBBP4,4,-0.139
ITPKC,1,-0.256
ITPKC,2,-0.0335
ITPKC,3,-0.018
ITPKC,4,-0.293
NTF4,1,-0.0133
NTF4,2,-0.00506
NTF4,3,-0.011
NTF4,4,0.138
DHCR7,1,-0.269
DHCR7,2,-0.112
DHCR7,3,-0.525
SCN9A,1,-0.623
SCN9A,2,0.0263
SCN9A,3,0.0107
SCN9A,4,-0.0847
IL36B,1,-0.234
IL36B,2,-0.182
IL36B,3,-0.267
TCF7,1,0.276
TCF7,2,0.544
TCF7,3,0.968
TCF7,4,-0.00456
SIX3,1,-0.409
SIX3,2,0.0788
SIX3,3,-0.0105
SIX3,4,-0.193

Part of the list above, reformatted.
{"target gene": "CXCL12", "reagent": 3, "log2 vehicle/camptothecin viability": -0.242}
{"target gene": "AURKAIP1", "reagent": 1, "log2 vehicle/camptothecin viability": -0.282}
{"target gene": "AURKAIP1", "reagent": 2, "log2 vehicle/camptothecin viability": 1.78}
{"target gene": "AURKAIP1", "reagent": 3, "log2 vehicle/camptothecin viability": -0.0328}
{"target gene": "AURKAIP1", "reagent": 4, "log2 vehicle/camptothecin viability": 0.338}
{"target gene": "KIF19", "reagent": 1, "log2 vehicle/camptothecin viability": 0.102}
{"target gene": "KIF19", "reagent": 2, "log2 vehicle/camptothecin viability": 0.282}
{"target gene": "KIF19", "reagent": 3, "log2 vehicle/camptothecin viability": 0.162}
{"target gene": "KIF19", "reagent": 4, "log2 vehicle/camptothecin viability": 0.213}
